Results deposited as PubChem BioAssay AID686943 (Drosophila RNAi Screening Center, 2013)
Screen: 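Knockdowns that increase or decrease active ERK after insulin receptor stimulation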 (primary screen). System: Drosophila S2R+ haemocyte-like cells expressing YFP-tagged ERK (Rolled). Knock-down reagent: long dsRNA against Drosophila genes. Treatment: insulin stimulation versus unstimulated cells; dose and duration not given. Read-out: 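Per-plate z-scores of phospho-ERK immunostaining normalised to YFP-tagged ERK, measured with and without insulin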. Scale: replicate 1, z-score of dpERK with insulin and replicate 2, z-score of dpERK with insulin: higher = more active ERK per ERK-YFP after insulin; replicate 1, z-score of dpERK under basal conditions: higher = more basal active ERK per ERK-YFP; replicate 1, z-score of ERK-YFP with insulin: higher = more YFP-tagged ERK signal.
The screen tested about 23,000 reagents; shown is an unselected part of those that have a named target and a result. 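Extra replicates exist only for a retested subset of genes; insulin dose and duration not given; both raised and lowered dpERK matter.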 The numbers tell different reagents against one gene apart. A plus sign joins genes that one reagent is predicted to hit. Not stated in the record: the amount of reagent, the time to read-out.

target gene | dsRNA no. | replicate 1, z-score of dpERK with insulin | replicate 2, z-score of dpERK with insulin | replicate 1, z-score of dpERK under basal conditions | replicate 1, z-score of ERK-YFP with insulin
Brd8 (GeneID 43460) | 1 | -0.23 | -1.52 | 0.08 | 0.29
Zif (GeneID 40795) | 1 | -2.76 | -1.43 | -0.43 | -1.02
lft (GeneID 34405) | 1 | -0.05 | 0.96 | -1.35 | 1.24
Sdb (GeneID 36573) | 1 | 0.3 | 0.29 | 2.05 | 0.58
Sdb (GeneID 36573) | 2 | 1.59 | 0.55 | 0.14 | -0.84
Sdb (GeneID 36573) | 3 | 0.55 | 0.15 | 0.03 | -0.34
CG43345 + CG43346 | 1 | 0.77 | -0.21 | -0.05 | 0.2
MED28 (GeneID 43079) | 1 | 1.21 | 0.6 | -0.83 | -0.26
La (GeneID 35305) | 1 | 0.24 | 0.38 | -1.1 | 0.83
CG43088 (GeneID 12797977) | 1 | 1.27 | -0.59 | 0.68 | -0.47
CG43088 (GeneID 12797977) | 2 | -0.03 | -0.33 | -0.22 | -0.18
scaf (GeneID 35505) | 1 | -0.31 | 0.71 | 0.02 | 0.23
CG18336 (GeneID 50236) | 1 | 0.22 | -0.48 | -0.14 | 0.17
hzg (GeneID 39748) | 1 | -1.05 | -2 | -3.41 | -0.52
Orc4 (GeneID 37970) | 1 | -0.7 | -0.58 | -0.36 | -0.85
CG3823 (GeneID 31573) | 1 | 0.01 | 0.49 | -0.42 | 0.31
rost (GeneID 34222) | 1 | -0.52 | -0.02 | 0.04 | 0.42
Tengl3 (GeneID 33404) | 1 | 0.32 | -0.08 | 0.01 | -0.22
CG6614 (GeneID 34583) | 1 | -0.04 | -0.16 | 0.68 | 0.79
CG8541 (GeneID 38838) | 1 | 0.22 | 0.61 | 0.23 | 0.11
CG31463 (GeneID 40978) | 1 | -0.49 | -0.35 | -0.94 | 0.46
ringer (GeneID 39813) | 1 | 0.26 | -0.87 | 0.4 | -0.9
Taf12 (GeneID 41406) | 1 | 2.15 | 2.48 | -0.29 | 1.27
Uev1A (GeneID 38613) | 1 | -1 | -1.26 | 0.78 | 0.22

Targets listed so far whose target name starts with R or r (2):
target gene | dsRNA no. | replicate 1, z-score of dpERK with insulin | replicate 2, z-score of dpERK with insulin | replicate 1, z-score of dpERK under basal conditions | replicate 1, z-score of ERK-YFP with insulin
rost (GeneID 34222) | 1 | -0.52 | -0.02 | 0.04 | 0.42
ringer (GeneID 39813) | 1 | 0.26 | -0.87 | 0.4 | -0.9

Further reagents:
target gene | dsRNA no. | replicate 1, z-score of dpERK with insulin | replicate 2, z-score of dpERK with insulin | replicate 1, z-score of dpERK under basal conditions | replicate 1, z-score of ERK-YFP with insulin
Or85a (GeneID 40991) | 1 | 0 | 1.09 | -0.63 | 0.17
mnb (GeneID 32771) | 1 | -3.16 | -2.21 | -2.44 | -0.79
mnb (GeneID 32771) | 2 | -0.44 | -0.01 | 2.41 | 0.74
CG6231 (GeneID 42339) | 1 | 0.31 | -0.72 | -0.29 | -0.76
CG12645 (GeneID 31947) | 1 | 0.77 | 0.59 | -0.88 | 0.02
SP1029 (GeneID 53473) | 1 | 1 | 0.24 | -0.58 | -0.4
Mettl2 (GeneID 38197) | 1 | -0.42 | -0.18 | -0.84 | 0.3
CG16790 (GeneID 41155) | 1 | 0.99 | -0.21 | -0.76 | 0.21
CHKov2 (GeneID 43068) | 1 | -0.21 | 0.06 | 0.05 | 1.03
Adgf-C (GeneID 41680) | 1 | -1.32 | 0.01 | -0.61 | 2.27
TTLL3A (GeneID 33947) | 1 | 0.4 | 0.08 | 0.22 | -0.53
CheA87a (GeneID 41642) | 1 | 0.26 | 0.34 | 0.4 | 0.38
CG4377 (GeneID 37489) | 1 | -0.48 | -0.22 | 1.13 | 0.23
CR32011 + CR32010 + PlexB + 1 more | 1 | 0.34 | 0.82 | 1.68 | -1
Usp10 (GeneID 38103) | 1 | 0.77 | 2.06 | -0.82 | 2.41
Usp10 (GeneID 38103) | 2 | -0.24 | 0.96 | 0.22 | 0.08
CG3226 (GeneID 31597) | 1 | 0.99 | -0.66 | -1.03 | -0.2
CG3589 (GeneID 37966) | 1 | 0.29 | 0.22 | 0.43 | 0.34
Gr39a (GeneID 117346) | 1 | -1.22 | 1.95 | -0.51 | 1.53
Gr39a (GeneID 117346) | 2 | -0.82 | 0.82 | -0.15 | 0.55
CG7294 (GeneID 34470) | 1 | 0.62 | 0.26 | 0.99 | 1.27
TyrRII (GeneID 42135) | 1 | 2.47 | 0.75 | -0.36 | -1.08
Exo70 (GeneID 38959) | 1 | -0.23 | -0.24 | 1.28 | -0.23
CG8135 + BBIP1 | 1 | -0.75 | -0.87 | -2.44 | -0.88
CG8135 + BBIP1 | 2 | 0.44 | 0.89 | -0.6 | 0.27
pygo (GeneID 43718) | 1 | -0.18 | -1.77 | -0.02 | 0.15
CG33303 (GeneID 2768916) | 1 | 0.07 | -0.19 | -0.31 | -0.21
CG17145 (GeneID 40215) | 1 | 0.22 | 0.62 | -0.69 | -0.16
CG14015 (GeneID 33780) | 1 | 0.18 | 0.5 | -0.17 | 0.01
CG34409 (GeneID 5740854) | 1 | 0.26 | -0.05 | -0.4 | -1
CG34409 (GeneID 5740854) | 2 | 0.77 | 0.79 | -0.46 | -0.89
vap (GeneID 32569) | 1 | 0.77 | 1.06 | 1.62 | 0.62
CG6244 (GeneID 2768962) | 1 | 0.19 | -0.59 | 0.39 | 0.5
